Test results published in PubChem BioAssay AID2685 (National Center for Advancing Translational Sciences (NCATS), 2010).
This is one part of the list. Further columns of the screen follow, without active or inactive calls. Most of these compounds were active or inconclusive in the main read-out, so they are no random draw. Words in brackets tell the shape of the fitted curve; partial curves, single points and poor fits give uncertain potencies.

Assay: qHTS Assay for Lipid Storage Modulators in Drosophila S3 Cells;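 for cell number change: cells counted by Cell Tracker Red CMTPX staining in the red channel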
Settings: BODIPY lipid droplet fluorescence, 18-24 h; for cell number change: measured here: cell count max response, cells fed with added oleic acid
Summary of the method: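 Laser-scanning cytometry quantifies lipid droplet accumulation (500–530 nm total intensity; droplet/cell object ratio) in oleic acid-fed (400 uM added) Drosophila S3 cells treated with a concentration series. 20 uM Triacsin C defined 100% inhibition.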

[1] = measured here: cell number channel AC50, cells fed with added oleic acid
[2] = measured here: lipid fluorescence (Fed channel) AC50, cells fed with added oleic acid

SMILES | cell number change | AC50 [1] | AC50 [2]
Cc1cccc(C(=O)NCC(=O)OCC(=O)c2cc(C)n(CC3CCCO3)c2C)c1 (stereo not drawn) | 26.3% | 2.31 µM [rising, full curve, poor fit] | 4.61 µM [rising, single point]
O=C1Cc2cc(S(=O)(=O)Nc3cccc(F)c3)ccc2N1 | -12.5% |  | 23.1 µM [rising, partial curve]
COC(=O)/C=c1/s/c(=C(/C#N)C(=O)N2CCOCC2)n(-c2ccccc2)c1=O | -55.1% | 3.66 µM [falling, full curve] | 3.66 µM [falling, full curve]
Cc1cccc(NC(=O)Cn2cnc3c(oc4ccccc43)c2=O)c1C | 32.7% | 0.184 µM [rising, full curve, poor fit] | 
O=C(c1cc(C(=O)NCCc2ccccc2)c(=O)n(CCc2ccccc2)c1)c1cc(Cl)ccc1O | -1.79% |  | 
O=C(COc1ncnc2c(Cl)cc(Cl)cc12)Nc1cc([N+](=O)[O-])ccc1Cl | -37.4% | 29.1 µM [falling, single point] | 
COc1ccc(C(=O)/C=C/C(=O)N(CC(=O)NC2CCCCC2)Cc2ccccc2OC)c(O)c1 | -38.5% | 9.2 µM [falling, partial curve] | 
O=C(NCc1ccccc1Cl)c1csc2c1CCCCC2 | 43.3% | 11.6 µM [rising, single point] | 
O=C(Nc1ccccc1C(=O)Nc1ccccn1)c1cc(F)c(F)cc1Cl |  |  | 0.651 µM [rising, full curve]
O=C(Oc1ccccc1N1C(=O)C2CCCCC2C1=O)c1ccc(Cl)cc1 (stereo not drawn) | -2.39% |  | 0.291 µM [falling, partial curve]
O=C(/C=C/c1ccc(Cl)cc1)NC(=S)NN1CCCCC1c1cccnc1 (stereo not drawn) | -7.22% | 6.51 µM [rising, single point] | 
COc1ccc(C(=O)n2nc(-c3ccco3)nc2N)cc1 | -14% |  | 7.31 µM [falling, partial curve, poor fit]
C=CCn1cc(C(=O)NCc2ccc(Cl)cc2)c(=O)c2cc(S(=O)(=O)N(CC)CC)ccc21 | -50.1% | 29.1 µM [falling, single point] | 0.411 µM [rising, partial curve]
Cn1c2ccccc2c2cc(C(=O)OCC(=O)N3CC(=O)Nc4ccccc43)sc21 | -9.13% |  | 0.366 µM [rising, full curve]
O=C(NNC(=O)c1ccccc1F)c1cccs1 | -5.13% |  | 
COc1ccccc1C(=O)NC(=S)Nc1ccc(NC(=O)c2cccs2)cc1 | -13.9% |  | 
COc1ccc(CNC(=O)CCCNC(=O)c2ccc(Cl)cc2)cc1OC | 7.21% | 2.59 µM [rising, partial curve, poor fit] | 
COC(=O)N/N=C/c1ccccc1OCCOc1ccc(OC)cc1 | 25.8% | 1.3 µM [rising, full curve, poor fit] | 
CCCCNC(=O)C1C2C=CC(C2)C1C(=O)O (stereo not drawn) | 11.1% | 0.00517 µM [rising, full curve, poor fit] | 0.13 µM [rising, full curve, poor fit]
CC(=O)c1c(N2CCOCC2)nc(=S)n(-c2ccc([N+](=O)[O-])cc2)c1C |  |  | 0.517 µM [rising, full curve, poor fit]

SMILES | cell number change | AC50 [1] | AC50 [2]
O=C1[C@@H]2[C@H]3CC[C@H](C3)[C@@H]2C(=O)N1O | -4.48% |  | 
O=C(Nc1cccnc1)C1CCCN(S(=O)(=O)c2ccccc2)C1 (stereo not drawn) | 73.5% | 29.1 µM [rising, single point] | 
Cc1c(C)n2c(SCC(=O)Nc3ccc4c(c3)OCCO4)nnc2[nH]c1=O | -11.2% |  | 
COCCn1c(SCC(=O)Nc2sccc2C(N)=O)nc2cc(Cl)ccc2c1=O | -32.4% | 0.103 µM [falling, full curve, poor fit] | 0.116 µM [falling, full curve, poor fit]
O=C(CN1CCOCC1)NCCc1ccccc1 | 5.25% |  | 
COc1ccc(C(=O)Nn2c(SCC(=O)NC3CCCC3)nc3ccccc3c2=O)cc1 | 8.82% |  | 5.17 µM [rising, full curve]
S=c1[nH]nc(C2CCCCC2)n1/N=C/c1ccc(Br)s1 | -43.2% | 25.9 µM [falling, single point] | 23.1 µM [falling, partial curve, poor fit]
CCC(C)NC(=O)Cn1cc2c(n1)CCC(C)C2 (stereo not drawn) | -1.32% |  | 0.58 µM [falling, full curve, poor fit]
CCc1ccccc1NC(=O)Nc1cc(F)ccc1F | 47.1% | 0.651 µM [rising, full curve] | 0.366 µM [rising, full curve]
O=C(NC1CCCCC1)c1cc(-c2cccs2)on1 | 23.3% |  | 
O=C(/C=C/c1cccc(F)c1)Nc1cc(S(=O)(=O)N2CCOCC2)ccc1N1CCCC1 | -66.7% | 29.1 µM [falling, single point] | 
O=C(CCCC1=NS(=O)(=O)c2ccccc2N1)Nc1ccccc1 |  |  | 16.4 µM [falling, partial curve, poor fit]
COc1ccc(Cl)cc1C(=O)NNC(=O)COC(=O)CCN=C1NS(=O)(=O)c2ccccc21 |  |  | 6.51 µM [rising, single point]
CCOc1ccccc1Nc1nnc(SCC(=O)Nc2nc(-c3ccc(OC)cc3)cs2)s1 | -19.7% | 2.59 µM [falling, single point] | 0.146 µM [falling, full curve, poor fit]
O=C(CCN1CCCCCC1)Nc1cccc(Cl)c1 | 3.26% |  | 18.4 µM [falling, single point]
O=C(CN(Cc1ccco1)C(=O)c1cccc(F)c1)Nc1ccccc1C(F)(F)F | 25.2% | 1.64 µM [falling, single point] | 
COc1cc(C(C[N+](=O)[O-])c2c(N)n(C)c(=O)n(C)c2=O)ccc1O (stereo not drawn) | -93.4% | 29.1 µM [falling, single point] | 29.1 µM [falling, single point]
Cc1onc(-c2ccccc2)c1C1=N/C(=C\c2ccccc2F)C(=O)O1 | 10% | 0.146 µM [rising, partial curve, poor fit] | 0.13 µM [rising, full curve, poor fit]
Cc1c(C)n(C)c2ccc(C(=O)N3CCN(c4ccccn4)CC3)cc12 | 2.13% |  | 0.651 µM [rising, full curve, poor fit]
Cc1ccnc(NC(=O)c2cccs2)c1 | -5.94% |  | 

Shown with tabs: part of the list above.
SMILES	cell number change	AC50 [1]	AC50 [2]
CCC(C)NC(=O)Cn1cc2c(n1)CCC(C)C2 (stereo not drawn)	-1.32%		0.58 µM [falling, full curve, poor fit]
CCc1ccccc1NC(=O)Nc1cc(F)ccc1F	47.1%	0.651 µM [rising, full curve]	0.366 µM [rising, full curve]
O=C(NC1CCCCC1)c1cc(-c2cccs2)on1	23.3%		

(further entries)

SMILES | cell number change | AC50 [1] | AC50 [2]
Cn1c(CCC(=O)Nc2cc(S(C)(=O)=O)ccc2Cl)nc2cc(S(=O)(=O)N3CCOCC3)ccc21 |  | 4.61 µM [falling, single point] | 
COc1cc(OC)c(C2=NOC(C(=O)N3CCc4ccccc4C3)C2)cc1Cl (stereo not drawn) |  | 0.58 µM [rising, single point] | 0.259 µM [rising, partial curve, poor fit]
Cn1c(C(=O)N2CCN(Cc3ccc4c(c3)OCO4)CC2)cc2c(=O)n(C)c3ccccc3c21 | 6.78% |  | 16.4 µM [rising, partial curve, poor fit]
CCN(CC)c1ccc(S(=O)(=O)N2CCOCC2)cc1NC(=O)COC(=O)c1cccnc1SC |  |  | 29.1 µM [falling, single point]
COc1cc(OC)cc(C(=O)OCc2ccc([N+](=O)[O-])cc2)c1 | -18.9% |  | 
O=C(O)c1ccc(NCc2nc3ccccc3n2Cc2ccccc2F)cc1 | 4.59% |  | 6.51 µM [falling, single point]
CCNC(=S)Nc1ccc(Cl)c(C(F)(F)F)c1 | -16.4% |  | 29.1 µM [falling, single point]
CCOC(=O)C1CCCN(C(=O)CCNS(=O)(=O)c2cc(Br)cnc2N)C1 (stereo not drawn) | 73.9% | 18.4 µM [rising, partial curve] | 20.6 µM [rising, single point]
Cc1ccc(NC(=O)c2cccc3cccnc23)cc1 | 0.435% |  | 29.1 µM [rising, single point]
CC(C)COc1cccc(-c2cc(C(=O)Nc3ccon3)c3ccccc3n2)c1 | 6.76% |  | 29.1 µM [falling, single point]
COc1cc(C(=O)CSc2nncn2C)cc(OC)c1OC | 16.6% |  | 
CCOc1ccc(OCC)c(NC(=O)CSc2nnc(-c3cccnc3)o2)c1 | -3.31% |  | 0.82 µM [rising, single point]
N#C/C(=C\c1ccc2c(c1)OCCO2)C(=O)NC1CCCCC1 | 51.5% | 29.1 µM [rising, single point] | 2.31 µM [falling, partial curve]
O=S(=O)(NC1CC2CCC1C2)c1ccc(Br)cc1 (stereo not drawn) | -12.4% |  | 3.66 µM [rising, partial curve]
Cc1ccc(-c2cc(=O)c3cc(F)ccc3[nH]2)cc1 |  |  | 3.66 µM [falling, full curve, poor fit]
CC(CN1CCCCC1)OC(=O)/C=C/c1ccccc1 (stereo not drawn) | -32.8% | 10.3 µM [falling, single point] | 7.31 µM [falling, partial curve]
COC(=O)c1sc(NC(=O)COc2ccccc2C)nc1C | -0.331% |  | 
COc1ccc(S(=O)(=O)N2CCCC2)cc1Br | -19.9% |  | 29.1 µM [rising, single point]
CC(CCc1ccccc1)NC(=O)COC(=O)c1cc(NS(=O)(=O)c2ccc(Cl)c([N+](=O)[O-])c2)ccc1O (stereo not drawn) | -15.4% |  | 0.184 µM [falling, partial curve, poor fit]
